According to PMC8084160:
No constants are given. Whether binding was seen depends on the method and setting. Some binding calls cover weakened binding; strength is not graded here.

Target: prosaposin (rat (endogenous in epididymal fluid of Sprague-Dawley rats)) (UniProt P10960)
Test: SDS-PAGE under non-reducing conditions with immunoblot; epididymal fluid proteins of control, castrated and castrated plus testosterone rats in Laemmli buffer without dithiothreitol, 7% gels, blot with anti-prosaposin

B1: prosaposin (protein, UniProt P10960 17-554)
chain: SPVQDPKICSGGSAVVCRDVKTAVDCRAVKHCQQMVWSKPTAKSLPCDICKTVVTEAGNLLKDNATEEEILHYLEKTCAWIHDSSLSASCKEVVDSYLPVILDMIKGEMSNPGEVCSALNLCQSLQEYLAEQNQRQLESNKIPEVDLARVVAPFMSNIPLLLYPQDRPRSQPQPKANEDVCQDCMKLVTDIQTAVRTNSSFVQGLVDHVKEDCDRLGPGVSDICKNYVDQYSEVAVQMMMHMQPKEICVMVGFCDEVKRVPMRTLVPATEAIKNILPALELTDPYEQDVIQAQNVIFCQVCQLVMRKLSELIINNATEELLIKGLSKACSLLPAPASTKCQEVLVTFGPSLLDVLMHEVNPNFLCGVISLCSANPNLVGTLEQPAAAIVSALPKEPAPPKQPEEPKQSALRAHVPPQKNGGFCEVCKKLVIYLEHNLEKNSTKEEILAALEKGCSFLPDPYQKQCDEFVAEYEPLLLEILVEVMDPSFVCSKIGVCPSAYKLLLGTEKCVWGPGYWCQNSETAARCNAVDHCKRHVWN
For B1, the binding was “binds”.
